Source: PubChem BioAssay AID652243 (Drosophila RNAi Screening Center, 2013)

Aim: 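Fly genes required for human androgen receptor driven transcription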 (primary screen)
System: Drosophila S2R+ cells
Reagents: long dsRNA against Drosophila genes
Duration: 72 h (48 h, then 24 h hormone)
Challenge: synthetic androgen R1881 at 10 nM for 24 h
Read-out: 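Per-well raw luminescence of the androgen-driven firefly reporter and of the Renilla control, two replicates each, without normalisation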
Direction: firefly reporter light: higher = more light from androgen-responsive reporter; Renilla control light: higher = more constitutive control signal (cell number, transfection)
Active means: 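Hit when the log firefly-to-Renilla ratio dropped or increased by a fixed fold versus the mean of GFP or LacZ controls across duplicate plates; lowering cut given as 1.5 and as 3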
Meaning of the calls: active = hit: reporter lowered or raised; inactive = no hit
The screen tested about 24,000 reagents; this is an unselected part of those that have a named target and a result. Of all reagents, 246 (1%) got an active call. 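Plates not normalised; calls are printed but the firefly/Renilla ratio behind them is not deposited; fold cut for lowering reported inconsistently.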 Raw values vary from plate to plate and are shown uncorrected. Names joined by + are all predicted targets of the reagent. The record does not give: the amount of reagent.

gene	amplicon	firefly reporter light, replicate 1	firefly reporter light, replicate 2	Renilla control light, replicate 1	Renilla control light, replicate 2	activity call
Rtc1	DRSC20285	70548	75862	6.29e5	6.13e5	inactive
CG15278	DRSC02481	1.63e5	1.83e5	1.89e6	2.18e6	inactive
armi	DRSC08193	1.37e5	1.90e5	1.35e6	2.31e6	inactive
Smg6	DRSC16029	1.37e5	1.02e5	1.29e6	1.10e6	inactive
Smg6	DRSC27703	3.19e5	3.01e5	4.79e5	6.78e5	inactive
Khc-73	DRSC07449	9.92e5	1.56e6	1.82e6	2.36e6	inactive
Khc-73	DRSC26819	3.44e5	2.98e5	5.81e5	4.18e5	inactive
CG10559	DRSC14255	2.32e5	3.67e5	2.83e6	2.72e6	inactive
CG10559	DRSC29876	4.73e5	4.08e5	1.04e6	1.13e6	inactive
CG10834	DRSC03693	2.68e5	2.98e5	1.36e6	1.65e6	inactive
lncRNA:CR33942	DRSC37857	7.75e5	6.96e5	2.20e6	2.01e6	inactive
lncRNA:CR33942	DRSC39119	1.02e6	7.81e5	1.98e6	1.77e6	inactive
bou	DRSC17924	2.42e5	3.70e5	2.73e6	2.86e6	inactive
Tbc1d15-17	DRSC00313	9.11e5	1.14e6	3.90e6	2.70e6	inactive
Tbc1d15-17	DRSC28813	4.59e5	4.88e5	8.31e5	9.26e5	inactive
alpha4GT2	DRSC15905	1.72e5	1.78e5	1.88e6	2.12e6	inactive
GstE6	DRSC06676	1.55e5	2.42e5	2.35e6	2.88e6	inactive
CG14177 (retired record)	DRSC10176	3.67e5	6.62e5	1.33e6	1.95e6	inactive
CG14177 (retired record)	DRSC27883	8.62e5	5.44e5	2.36e6	1.71e6	inactive
Bre1	DRSC09742	9.66e5	6.11e5	1.34e6	1.14e6	inactive
CG7544	DRSC07023	4.88e5	4.78e5	2.45e6	4.27e6	inactive
CG12547	DRSC07759	85528	1.69e5	1.14e6	1.64e6	inactive
wech	DRSC06606	1.05e6	9.97e5	2.03e6	2.17e6	inactive
CG8507	DRSC16435	1.09e5	1.09e5	2.06e6	1.89e6	inactive
CG30031 + deltaTry + gammaTry	DRSC07622	2.60e5	1.84e5	1.91e6	1.23e6	inactive
frtz	DRSC00512	87820	98494	5.59e5	7.69e5	inactive
Klp67A	DRSC11205	1.25e5	1.49e5	1.28e6	1.11e6	inactive
Klp67A	DRSC26028	1.67e5	1.82e5	3.53e5	3.27e5	inactive
bowl	DRSC00805	4.92e5	7.00e5	7.24e5	7.87e5	inactive
bowl	DRSC28379	9.26e5	7.95e5	1.46e6	1.36e6	inactive
CG34189	DRSC38723	1.06e6	7.78e5	1.45e6	2.00e6	inactive
Ublcp1	DRSC14149	52831	72022	6.18e5	6.68e5	inactive
Ublcp1	DRSC28057	5.11e5	4.89e5	1.59e6	1.55e6	inactive
ZnT35C	DRSC01959	1.03e5	1.10e5	1.32e6	1.32e6	inactive
lgs	DRSC17152	1.05e5	1.48e5	4.92e5	5.38e5	inactive
Cow	DRSC13601	5.33e5	8.33e5	2.08e6	3.77e6	inactive
Cow	DRSC14680	1.23e5	1.57e5	2.25e6	2.36e6	inactive
Cow	DRSC29766	4.47e5	3.89e5	1.39e6	1.35e6	inactive
CG8170	DRSC07087	1.78e5	1.99e5	2.09e6	1.53e6	inactive
CG5853	DRSC01103	2.32e5	2.08e5	2.26e5	2.36e5	inactive
CG5853	DRSC02906	1.43e6	9.79e5	3.04e6	2.71e6	inactive

No new results follow: 4 of the entries above.
gene	amplicon	firefly reporter light, replicate 1	firefly reporter light, replicate 2	Renilla control light, replicate 1	Renilla control light, replicate 2	activity call
Smg6	DRSC16029	1.37e5	1.02e5	1.29e6	1.10e6	inactive
Smg6	DRSC27703	3.19e5	3.01e5	4.79e5	6.78e5	inactive
Khc-73	DRSC07449	9.92e5	1.56e6	1.82e6	2.36e6	inactive
Khc-73	DRSC26819	3.44e5	2.98e5	5.81e5	4.18e5	inactive
